# Measurements: patent US6008258A (priority 1998, dated 1999)
# Columns and labels:
# rat = format: in vivo; details: day 5 vs day 1
# [1] = system: NMDA receptor (noncompetitive MK-801 site), rat forebrain; format: binding
compound,measurement,setting,value
CN1CC[C@]23c4c5ccc(O)c4O[C@H]2[C@@H](O)C=C[C@H]3[C@H]1C5 [Morphine],shift in ED50 for IT morphine in morphine treated group,rat,37 fold
same,displacement of [3H]MK-801 binding,[1],did not displace
same,Ki,"[1]; read-out: [3H]MK-801 Ki, forebrain",> 100 µM
